Results published in PubChem BioAssay AID588590 (National Center for Advancing Translational Sciences (NCATS), 2011).
In all, about 390,000 compounds went through this assay and about 4,000 (1%) were called active. Inconclusive means that the source gave no clear call. Such entries were picked first, then a sample of the others. Calls follow the shape of the dose curve; as a rule, active = well fitted inhibition curve with a large enough effect; inconclusive = small, poorly fitted or top-dose-only effect, or another doubt; inactive = no such curve, though single readings can be large or run the other way. Where the call is inconclusive, the potency comes from a doubtful curve fit. Residues, ends and D or L forms follow the SMILES beside them.

Sequences of proteins named here, by UniProt entry; tags and fusion partners are left off. A change or cut given only in a name is not applied to a line headed by its entry.
UniProt Q9UNA4: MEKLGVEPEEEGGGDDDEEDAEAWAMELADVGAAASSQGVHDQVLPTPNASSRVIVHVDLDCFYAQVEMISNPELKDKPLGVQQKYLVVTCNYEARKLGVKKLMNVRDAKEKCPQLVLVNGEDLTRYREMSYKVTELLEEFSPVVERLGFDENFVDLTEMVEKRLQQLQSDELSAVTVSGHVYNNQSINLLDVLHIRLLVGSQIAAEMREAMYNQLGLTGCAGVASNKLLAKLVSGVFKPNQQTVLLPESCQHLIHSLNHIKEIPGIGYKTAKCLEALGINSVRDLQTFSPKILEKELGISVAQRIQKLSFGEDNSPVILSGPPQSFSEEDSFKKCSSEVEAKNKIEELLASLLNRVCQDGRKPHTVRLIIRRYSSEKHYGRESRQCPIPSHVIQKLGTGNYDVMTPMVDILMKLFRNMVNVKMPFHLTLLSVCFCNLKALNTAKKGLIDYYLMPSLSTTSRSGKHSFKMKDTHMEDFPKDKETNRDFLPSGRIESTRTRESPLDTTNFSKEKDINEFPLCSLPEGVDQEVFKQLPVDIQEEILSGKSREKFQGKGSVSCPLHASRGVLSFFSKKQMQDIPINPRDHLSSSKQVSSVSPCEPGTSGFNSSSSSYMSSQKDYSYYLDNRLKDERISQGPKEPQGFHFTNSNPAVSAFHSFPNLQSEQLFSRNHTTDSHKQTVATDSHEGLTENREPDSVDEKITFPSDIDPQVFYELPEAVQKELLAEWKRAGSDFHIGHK

molecular target: DNA polymerase iota (Homo sapiens) (UniProt Q9UNA4); assay: qHTS for Inhibitors of Polymerase Iota; conditions: Pol iota fluorescent replication assay, 10 min; series mostly up to 115 µM; activity, negative = inhibition: at the top concentration
Outline: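 Pol iota at 10 nM preincubated 15 min with compounds at room temperature; reaction started with fluorescent substrate, 50 nM final. Fluorescence read kinetically at 0 and 10 min; buffer-only wells as negative control.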
Potency is read from the fitted curve at half-maximal effect.

SMILES	Potency	activity, negative = inhibition
O=C(/C=C/c1ccccc1Cl)c1ccc(O)cc1	inconclusive: 17.8 µM [inhibitor, full curve, poor fit]	–
Cc1ccc(-c2nc(C(=O)NCCCN(C)C)cc3c2[nH]c2ccccc23)cc1	inconclusive: 25.1 µM [inhibitor, full curve, poor fit]	–
C1=CC(c2cc3ccccc3o2)OC(CCc2ccccc2)C1 (stereo not drawn)	inconclusive: 2.82 µM [inhibitor, full curve, poor fit]	–
CCn1c(=O)n(CC)c2cc(N3CCCCC3)c(NC(=O)Nc3cc(C)cc(C)c3)cc21	–	inactive: 32.4%
CCc1ccc(CCC(=O)Nc2sc3c(c2C#N)CCCC3)o1	inconclusive: 15.8 µM [inhibitor, full curve, poor fit]	–
Oc1ccccc1C1C=C(c2ccc3c(c2)OCO3)NC(c2cccc(F)c2)N1 (stereo not drawn)	inconclusive: 39.8 µM [inhibitor, partial curve]	–
O=C(NCC1CCCO1)c1ccc(F)c2ccccc12 (stereo not drawn)	–	inactive: 6.11%
O=c1c2c3c(sc2nnn1Cc1ccc(Br)cc1)CCCC3	–	inactive: -4.08%
Cc1cc(C)c(NC(=O)CS)c(Cl)c1	inconclusive: 14.1 µM [inhibitor, partial curve, poor fit]	–
CCOCc1c(C(=O)NCc2ccccc2CN2CCCC2)oc2ccccc12	inconclusive: 79.4 µM [inhibitor, partial curve, poor fit]	–
O=C(O)/C=C1\NC(=O)c2ccccc21	–	inactive: -4.12%
COc1ccc(-c2cnc(C)o2)cc1S(=O)(=O)Nc1ccc(C)c(F)c1	inconclusive: 89.1 µM [inhibitor, single point]	–
CC(=O)NC(C)Cc1cn(Cc2ccccc2)c2ccccc12 (stereo not drawn)	inconclusive: 2.82 µM [inhibitor, full curve, poor fit]	–
CC(=O)Nc1cccc(NC(=O)CSc2nnc(Cc3cccn3C)n2-c2ccc(C)cc2)c1	inconclusive: 112 µM [inhibitor, partial curve, poor fit]	–
CN(C)c1cccc2c(S(=O)(=O)Nc3ccccn3)cccc12	inconclusive: 20 µM [inhibitor, full curve, poor fit]	–
O=C1/C(=C/c2cccnc2)Sc2ccccc21	–	inactive: -19.2%
Cc1ccc(Nc2nnc(SCC(=O)c3ccc(O)cc3O)s2)cc1	inconclusive: 28.2 µM [inhibitor, partial curve, poor fit]	–
O=C(c1ccc2c(c1)C(=O)N(c1ccc(Cl)cc1)C2=O)N1CCN(c2ccccn2)CC1	inconclusive: 89.1 µM [inhibitor, partial curve, poor fit]	–
Cc1ccc(N=Nc2ccc(O)c3ncccc23)cc1	–	inactive: 17.4%
CN(C)c1ccc(/C=N/N=C(N)N)cc1[N+](=O)[O-]	inconclusive: 89.1 µM [inhibitor, single point]	–
O=C1OC(Nc2ccc3c(c2)OCO3)c2ccccc21 (stereo not drawn)	inconclusive: 63.1 µM [inhibitor, partial curve, poor fit]	–
Cc1nn(CC(=O)NCc2cccc(F)c2)c(=O)c2cccn12	inconclusive: 50.1 µM [inhibitor, partial curve, poor fit]	–
NC(=O)C1CCN(Cc2nnnn2Cc2ccco2)CC1	inconclusive: 35.5 µM [inhibitor, partial curve, poor fit]	–

Arranged by length of the SMILES (high to low): some entries from above
SMILES	Potency	activity, negative = inhibition
CCOCc1c(C(=O)NCc2ccccc2CN2CCCC2)oc2ccccc12	inconclusive: 79.4 µM [inhibitor, partial curve, poor fit]	–
Cc1nn(CC(=O)NCc2cccc(F)c2)c(=O)c2cccn12	inconclusive: 50.1 µM [inhibitor, partial curve, poor fit]	–
CCc1ccc(CCC(=O)Nc2sc3c(c2C#N)CCCC3)o1	inconclusive: 15.8 µM [inhibitor, full curve, poor fit]	–
O=C1/C(=C/c2cccnc2)Sc2ccccc21	–	inactive: -19.2%

Single records, as listed above. Values in the order: Potency	activity, negative = inhibition
O=C(/C=C/c1ccccc1Cl)c1ccc(O)cc1 as listed: inconclusive: 17.8 µM [inhibitor, full curve, poor fit]	–
CN(C)c1cccc2c(S(=O)(=O)Nc3ccccn3)cccc12 as listed: inconclusive: 20 µM [inhibitor, full curve, poor fit]	–

More compounds follow:

SMILES	Potency	activity, negative = inhibition
COC(=O)c1cccc(NCN2C(=O)c3ccccc3C2=O)c1	inconclusive: 89.1 µM [inhibitor, single point]	–
O=C1C=CC(=O)N1c1cccc2cccnc12	inconclusive: 17.8 µM [inhibitor, full curve, poor fit]	–
O=[N+]([O-])c1cccnc1Sc1n[nH]c(-c2ccc(Cl)cc2)n1	inconclusive: 3.55 µM [inhibitor, full curve, poor fit]	–
CCc1ncc(CN2CCC(C(=O)Nc3cccc(-c4cscn4)c3)CC2)cn1	inconclusive: 100 µM [inhibitor, single point]	–
Cc1nc2ccc(-c3nc4ccccc4[nH]3)cc2[nH]1	inconclusive: 17.8 µM [inhibitor, full curve]	–
Oc1ccc(/C=N/Nc2ccc(Cl)nn2)c(O)c1O	inconclusive: 3.55 µM [inhibitor, partial curve, poor fit]	–
Cc1ccccc1NC(=O)CC1C(=O)NCCN1C(=O)c1cccc(Cl)c1 (stereo not drawn)	inconclusive: 89.1 µM [inhibitor, single point]	–
O=C(CCl)N1CCN(S(=O)(=O)c2ccc3ccccc3c2)CC1	inconclusive: 44.7 µM [inhibitor, partial curve, poor fit]	–
COc1ccc(N2CCN(C(=O)CCS(=O)(=O)c3cc4c(cc3Cl)NC(=O)CO4)CC2)cc1	inconclusive: 0.631 µM [inhibitor, full curve, poor fit]	–
CC(C)Oc1ccc(OCCn2c(=S)[nH]c3c(N)ncnc32)cc1	–	inactive: -11.1%
COc1cc(/C=C(\C#N)c2[nH]nc(N)c2C#N)cc(OC)c1O	inconclusive: 39.8 µM [inhibitor, single point]	–
Cc1ccc(S(=O)(=O)N[C@@H](Cc2ccccc2)C(=O)N2CCC[C@@H]2C(=O)O)cc1 (HELM PEPTIDE1{[Cc1ccc(S(=O)(=O)[*:2])cc1].F.[dP]}$$$$V2.0)	–	inactive: 127%
COc1ccc(NC(=O)c2cc3ccccc3cc2OC)cc1	inconclusive: 25.1 µM [inhibitor, full curve, poor fit]	–
COc1cc(OCc2ccc(C)cc2)ccc1CNC[C@H]1O[C@@H](n2cnc(C(N)=O)n2)[C@H](O)[C@@H]1O	inconclusive: 79.4 µM [inhibitor, partial curve, poor fit]	–
O=C(CN1CCC(c2nc3ccccc3s2)CC1)NCc1cccs1	inconclusive: 70.8 µM [inhibitor, single point]	–
Cc1ccc(NC(=O)N2CCC(n3c(C)nc4cccnc43)CC2)c(Cl)c1	–	inactive: 4.47%
O=C(CSc1nnc(Cc2cccs2)n1Cc1ccco1)Nc1cccc(Cl)c1	inconclusive: 14.1 µM [inhibitor, full curve, poor fit]	–
CCC(Oc1ccccc1)C(=O)Nc1nnc(S(=O)(=O)Nc2ccccc2)s1 (stereo not drawn)	inconclusive: 31.6 µM [inhibitor, single point]	–
CCOC(=O)c1cc2c(OC)ccc(OC)c2n1CC(=O)c1ccccc1	–	inactive: 8.6%
C=CCn1c(SCC(=O)c2ccccc2)nnc1-c1ccc2c(c1)OCO2	inconclusive: 17.8 µM [inhibitor, partial curve]	–
O=C(Nc1ccccc1N1CCN(C(=O)c2ccccc2)CC1)c1cc2ccccc2o1	inconclusive: 35.5 µM [inhibitor, single point]	–
COc1ccc(CNC(=O)Nc2cn(CC(C)C)c(=O)c3ccccc23)c(OC)c1	active: 22.4 µM	–
Cc1ccc(/C=c2\sc3nc(-c4cccnc4)nn3c2=O)cc1	inconclusive: 31.6 µM [inhibitor, full curve]	–

SMILES	Potency	activity, negative = inhibition
Nc1c2c(nc3ccccc13)CCCC2	inconclusive: 15.8 µM [inhibitor, partial curve, poor fit]	–
CCOc1ccc(-n2c(C)cc(C(=O)CCl)c2C)cc1	–	inactive: 33.4%
Cc1nnc(N/N=C/c2cccc(OCc3ccc(Cl)c(Cl)c3)c2)n1N	active: 6.31 µM	–
Cc1ccc(-c2nc3ccccc3o2)cc1NC(=O)COc1ccccc1C	–	inactive: -22.7%
O=c1cc(-c2ccccc2)oc2cc(O)cc(O)c12	–	inactive: 13.6%
N#CCC(=O)Nc1ccc(C(=O)OCC(=O)NC(=O)Nc2ccc3c(c2)OCCO3)cc1	inconclusive: 39.8 µM [inhibitor, single point]	–
Cc1sc2nc3ccc(NCc4ccco4)nn3c(=O)c2c1C	inconclusive: 14.1 µM [inhibitor, full curve, poor fit]	–
O=C(O)CCC(=O)N1CCc2cc(S(=O)(=O)N3CCCCC3)ccc21	–	inactive: 8.56%
N#Cc1cc(Oc2cccc3cccnc23)c(-n2nnc3ccccc32)cc1C#N	inconclusive: 14.1 µM [inhibitor, partial curve]	–
N#C/C(=C/c1ccc(OC(=O)c2ccc(Br)s2)cc1)c1nc2ccccc2[nH]1	–	inactive: 59.5%
N#Cc1c2n(c(=S)n(-c3ccccn3)c1=O)CCCCC2	inconclusive: 11.2 µM [inhibitor, partial curve, poor fit]	–
Cc1ccc(Cl)cc1N1CCN(C(=O)c2cn(C3CCCCC3)c(=O)c3c2c2ccccc2n3C)CC1	–	inactive: 46.1%
CCn1c2ccccc2c2cc(C3C(C#N)=C(N)Oc4n[nH]c(COC)c43)ccc21 (stereo not drawn)	inconclusive: 25.1 µM [inhibitor, single point]	–
COC(=O)CNC(=O)Nc1cc(C(=O)NCc2ccc(C)cc2)ccc1N1CCCC1	–	inactive: 12.4%
c1coc(CNc2nc(N3CCCCC3)nc3ccccc23)c1	inconclusive: 14.1 µM [inhibitor, partial curve]	–
O=C(c1cc2ccccc2o1)N(Cc1ccco1)Cc1cccs1	–	inactive: 2.03%
Cc1ccccc1CSCCNC(=O)CN(c1ccc2c(c1)OCO2)S(C)(=O)=O	inconclusive: 22.4 µM [inhibitor, partial curve, poor fit]	–
CN1CCc2c(sc(/N=C/c3cccs3)c2C(N)=O)C1	inconclusive: 25.1 µM [inhibitor, single point]	–
COCC(C)n1c(C)cc(C(=O)CSc2nnc(-c3ccco3)o2)c1C (stereo not drawn)	–	inactive: 41.5%
O=C(Cc1c(F)c(F)c(F)c(F)c1F)Nc1nc(-c2ccccc2)cs1	–	inactive: 72.6%
Nc1nc2nc[nH]c2c(=O)[nH]1	inconclusive: 17.8 µM [inhibitor, full curve, poor fit]	–
Cc1ccc(Cn2c(SCC(=O)NCc3ccc(Cl)cc3)nc3ccsc3c2=O)cc1	–	inactive: 18.5%
